{
  "source": "patent US20230143042A1",
  "about": "“SYSTEM AND METHOD FOR AEROSOL PARTICLE PRODUCTION OF SUBMICRON AND NANO STRUCTURED MATERIALS” (The Trustees of Princeton University, priority 2020, published 2023)",
  "assay": "Size of aerosol droplets produced by the bubble-gas jet atomizer",
  "assay_type": "physicochemical",
  "conditions": "Δpgj 1-5 bar",
  "note": "For at least one compound, name, drawing or mass did not settle the structure.",
  "data": [
    {"smiles": "OCl", "note": "[HOCl-water, HOCl]", "values": [
      {"measurement": "particle sizes of submicron aerosol droplets", "result": "100 nm and 1 μm"}
    ]}
  ]
}
